From publication PMC3749933
These are yes or no findings as the source states them, for the method shown. In cells and extracts the contact can be indirect. Some entries that bind do so weakly or less than the wild type. Where a sequence is shown, tags or fusion partners need not be part of it.

T1: FLAG-tagged CESA9 (rice) (UniProt Q69P51)
T1 sequence: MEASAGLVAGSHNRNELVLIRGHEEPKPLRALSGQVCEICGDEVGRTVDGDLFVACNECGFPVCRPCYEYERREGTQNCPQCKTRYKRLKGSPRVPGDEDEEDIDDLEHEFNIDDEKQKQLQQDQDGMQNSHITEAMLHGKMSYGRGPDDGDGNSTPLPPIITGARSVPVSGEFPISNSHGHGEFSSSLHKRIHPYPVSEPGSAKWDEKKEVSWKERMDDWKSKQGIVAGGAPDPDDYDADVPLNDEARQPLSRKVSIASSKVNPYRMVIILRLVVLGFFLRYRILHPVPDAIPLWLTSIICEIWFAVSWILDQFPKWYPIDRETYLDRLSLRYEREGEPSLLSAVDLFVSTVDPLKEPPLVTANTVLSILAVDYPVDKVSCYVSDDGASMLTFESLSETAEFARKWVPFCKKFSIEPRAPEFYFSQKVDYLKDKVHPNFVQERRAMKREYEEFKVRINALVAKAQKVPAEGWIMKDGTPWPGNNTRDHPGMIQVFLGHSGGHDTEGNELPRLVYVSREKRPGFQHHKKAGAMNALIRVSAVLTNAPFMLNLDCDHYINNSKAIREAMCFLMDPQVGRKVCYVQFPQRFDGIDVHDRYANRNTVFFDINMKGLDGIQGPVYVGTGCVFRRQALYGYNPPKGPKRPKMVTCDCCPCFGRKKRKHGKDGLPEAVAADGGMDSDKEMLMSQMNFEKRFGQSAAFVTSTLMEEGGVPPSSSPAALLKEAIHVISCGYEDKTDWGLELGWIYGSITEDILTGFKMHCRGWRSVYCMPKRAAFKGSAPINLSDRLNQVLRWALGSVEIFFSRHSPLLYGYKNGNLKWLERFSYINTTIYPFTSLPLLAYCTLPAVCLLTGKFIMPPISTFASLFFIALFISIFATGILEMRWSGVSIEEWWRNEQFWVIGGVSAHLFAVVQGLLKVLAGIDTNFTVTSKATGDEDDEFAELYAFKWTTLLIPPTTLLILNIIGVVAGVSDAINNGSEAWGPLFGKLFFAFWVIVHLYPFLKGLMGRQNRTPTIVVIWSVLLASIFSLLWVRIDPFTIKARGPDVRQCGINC

B1: Brittle Culm1 (protein, UniProt Q10JL1 23-443)
chain: YDPLDPKGNITIKWDVISWTPDGYVAMVTMSNYQMYRQILAPGWTVGWSWAKKEVIWSIVGAQATEQGDCSKFKGGIPHSCKRTPAIVDLLPGVPYNQQIANCCKAGVVSAYGQDPAGSVSAFQVSVGLAGTTNKTVKLPTNFTLAGPGPGYTCGPATIVPSTVYLTPDRRRRTQALMTWTVTCTYSQQLASRYPTCCVSFSSFYNSTIVPCARCACGCGHDGYRGNGGGGKNARAGDGRSRRNSGGGGGHSGGTECIMGDSKRALSAGVNTPRKDGAPLLQCTSHMCPIRVHWHVKLNYKDYWRAKIAITNFNYRMNYTQWTLVAQHPNLNNVTEVFSFQYKPLLPYGNINDTGMFYGLKFYNDLLMEAGPFGNVQSEVLMRKDYNTFTFSQGWAFPRKIYFNGDECKMPPPDSYPYLPN
modifications: GPI anchor at the ω-cleavage site; N-glycosylated
B2: CESA4 (enzyme, UniProt Q5JN63 1-989)
chain: MMESGVPPCAACGDDAHAACRACSYALCKACLDEDAAEGRTTCARCGGEYGAPDPAHGQGAVVEEEVEESHEPAAGGVRERVTMASQLSDHQDEGVHARTMSTHARTISSVSGVGSELNDESGKPIWKNRVESWKEKKKEKKASAKKAAAKAQAPPVEEQIMDEKDLTDAYEPLSRIIPISKNKLTPYRAVIIMRLVVLGLFFHYRITNPVYSAFGLWMTSVICEIWFGFSWILDQFPKWCPINRETYVDRLIARYGDGEDSGLAPVDFFVSTVDPLKEPPLITANTVLSILAVDYPVEKISCYVSDDGSAMLTFESLAETAEFARRWVPFCKKYSIEPRAPEFYFSQKIDYLKDKIHPSFVKERRAMKRDYEEYKVRINALVAKAQKTPEEGWIMQDGTPWPGNNPRDHPGMIQVFLGETGARDFDGNELPRLVYVSREKRPGYQHHKKAGAMNALVRVSAVLTNAPYILNLDCDHYVNNSKAVREAMCFMMDPSVGRDVCYVQFPQRFDGIDRSDRYANRNVVFFDVNMKGLDGLQGPVYVGTGCCFYRQALYGYGPPSLPALPKSSVCSWCCCCCPKKKAEKSEKEMHRDSRREDLESAIFNLREIDNYDEYERSMLISQMSFEKSFGLSSVFIESTLMENGGVPESANPSTLIKEAIHVISCGYEEKTEWGKEIGWIYGSVTEDILTGFKMHCRGWRSIYCMPIRPAFKGSAPINLSDRLHQVLRWALGSVEIFLSRHCPLWYGYGGGRLKWLQRLSYINTIVYPFTSLPLIAYCCLPAICLLTGKFIIPTLSNAATIWFLGLFISIIVTSVLELRWSGIGIEDWWRNEQFWVIGGVSAHLFAVFQGILKMIAGLDTNFTVTAKATDDTEFGELYVFKWTTVLIPPTSILVLNLVGVVAGFSDALNSGYESWGPLFGKVFFAMWVIMHLYPFLKGLMGRQNRTPTIVVLWSVLLASVFSLLWVKIDPFIGSSETTTTNSCANFDC
B3: CESA7 (enzyme, UniProt Q9AV71 1-1063)
chain: MDTASVTGGEHKGKEKTCRVCGEEVAAREDGKPFVACAECGFPVCKPCYEYERSEGTQCCPQCNTRYKRHKGCPRVEGDEDDGGDMDDFEEEFQIKSPTKQKPPHEPVNFDVYSENGEQPAQKWRPGGPALSSFTGSVAGKDLEQEREMEGGMEWKDRIDKWKTKQEKRGKLNRDDSDDDDDKNDDEYMLLAEARQPLWRKVPIPSSKINPYRIVIVLRLVVLCFFLKFRITTPAMDAVPLWLASVICELWFALSWILDQLPKWSPVTRETYLDRLALRYERDGEPCRLAPIDFFVSTVDPLKEPPIITANTVLSILAVDYPVDRVSCYVSDDGASMLLFDTLSETAEFARRWVPFCKKFTIEPRAPEFYFSQKIDYLKDKVQPTFVKERRAMKREYEEFKVRINALVAKAQKKPEEGWVMQDGTPWPGNNTRDHPGMIQVYLGSQGALDVEGSELPRLVYVSREKRPGYNHHKKAGAMNSLVRVSAVLTNAPFILNLDCDHYVNNSKAVREAMCFLMDKQLGKKLCYVQFPQRFDGIDRHDRYANRNTVFFDINMKGLDGIQGPVYVGTGTVFNRQALYGYDPPRPEKRPKMTCDCWPSWCCCCCCFGGGKRGKSHKNKKGGGGGEGGGLDEPRRGLLGFYKKRSKKDKLGGGAASLAGGKKGYRKHQRGFELEEIEEGLEGYDELERSSLMSQKSFEKRFGQSPVFIASTLVEDGGLPQGAAADPAALIKEAIHVISCGYEEKTEWGKEIGWIYGSVTEDILTGFKMHCRGWKSVYCTPARAAFKGSAPINLSDRLHQVLRWALGSVEIFMSRHCPLWYAYGGRLKWLERFAYTNTIVYPFTSIPLLAYCTIPAVCLLTGKFIIPTLNNLASIWFIALFLSIIATGVLELRWSGVSIEDWWRNEQFWVIGGVSAHLFAVFQGLLKVLGGVDTNFTVTSKAAADETDAFGELYLFKWTTLLVPPTTLIIINMVGIVAGVSDAVNNGYGSWGPLFGKLFFSFWVILHLYPFLKGLMGRQNRTPTIVVLWSILLASIFSLVWVRIDPFIPKPKGPVLKPCGVSC

Biological target: T1, FLAG-tagged CESA9 (rice)
Assay: co-IP; total membrane proteins from young internodes of transgenic rice expressing FLAG-CESA9, incubated with anti-FLAG M2 affinity gel overnight at 4°C; input and output blotted with anti-CESA, anti-BC1 and anti-UGPase antibodies

| binding | Binder |
| --- | --- |
| no binding | B1 |
| binds | B2 |
| binds | B3 |
